We go through 61 molecules from PubChem BioAssay AID445 (National Center for Advancing Translational Sciences (NCATS), 2006).

The nature of this assay: IkB Signaling. The following applies: ABC-DLBCL IkBa-CBG/CBR dual luciferase ratio (green luciferase fused to IkBa over red control in OCI-Ly3 lymphoma cells), 4 h. In a few lines: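 Curves were fitted separately to fusion (green), unfused (red) and ratio luminescence, then classed by r2, magnitude and activity. Cells: OCI-Ly3, 4 h compound plus doxycycline at 37C; 10 uM MG-132 defined full response.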
[1] abbreviates: measured here: control luc red channel unless noted.
The mark [2] stands for this setting: measured here: IkB-luc green channel.
[3] abbreviates: measured here: control luc red channel.

Molecules are shown by their SMILES. The list shows a part of the results. These are further read-outs of the screen, such as a control signal, another cell line or another target. No call is given for them. Most of these compounds were active or inconclusive in the main read-out, so they are no random draw. Potencies come from curve fits of mixed quality, noted in brackets.

The AC50 is the concentration giving half of the maximal activity seen. Take `Cc1ccc(N[C@H](c2ccccc2)c2ccc3cccnc3c2O)cc1`: the AC50 under setting [1] was 3.98 µM [rising, partial curve] [measured here: IkB-luc green channel].
Turning to `Cc1cccc2cc(CN(Cc3ccco3)C(=O)NC3CCCCC3)c(=O)[nH]c12`, the AC50 under setting [1] is 31.6 µM [falling, single point].
Regarding `CCN(CC)c1ccc(NC(=O)c2cc(CN3CCCC3)on2)c(C)c1`, under setting [1], the half-maximal activity concentration (AC50) was 39.8 µM [falling, partial curve].
Same read-out and setting: under `CCOc1cc(CNC(=O)c2ccc(NC(=O)c3nsc4ccccc34)cc2)ccc1OC` stands 0.1 µM [falling, full curve]; under `Cn1c(=O)c2ccccc2n2c(CCC(=O)N3CCN(c4cccc(Cl)c4)CC3)nnc12`, 25.1 µM [falling, single point]; under `CCOc1ccc(NC(=O)CC2C(=O)N(c3cccc(OC)c3)C(=O)N2C2CCCCC2)cc1` (stereo not drawn), 25.1 µM [falling, partial curve].
For `COC(=O)c1c(-c2cccs2)csc1NC(=O)c1cc(OC)cc(OC)c1`, the half-maximal activity concentration (AC50) under setting [1] was 12.6 µM [falling, partial curve].
As to `Clc1cccc(-n2ncc3c(NCCCc4ccccc4)ncnc32)c1`, under setting [1], the AC50 is 20 µM [falling, partial curve].
As to `Cc1ccc(C(=O)Nc2nc3ccccc3c(=O)s2)cc1`, the concentration at half-maximal activity (AC50) runs as follows: under setting [2], 2.51 µM [rising, full curve]; under setting [3], 1.26 µM [falling, full curve].
`Cc1cc(S(=O)(=O)Nc2cccc(-c3ccc(N4CCOCC4)nn3)c2)c(C)cc1Cl`: the AC50 under setting [1] was 39.8 µM [falling, partial curve].
As to `Cc1ccc(CCNC(=O)c2sc3ncccc3c2-n2cccc2)cc1`, under setting [1], the concentration at half-maximal activity (AC50) is 20 µM [falling, partial curve].
As to `COc1cccc(NC(=O)CSc2nc(O)c(C/C=C/c3ccccc3)c(=O)[nH]2)c1`, the concentration at half-maximal activity (AC50) under setting [1] is 15.8 µM [falling, partial curve].
On the same count and under the same terms, under `c1ccc(-c2ccc(N3CC[C@@]4(CCCNC4)C3)cc2)cc1` stands 3.98 µM [falling, partial curve]; under `CCc1cccc(C)c1Nc1c(-c2ccc(N(C)C)cc2)nc2ncccn12`, 31.6 µM [falling, single point]; under `CC1CCC(NC(=O)C2(C)Cc3ccccc3C(=O)N2Cc2ccccc2Cl)CC1` (stereo not drawn), 39.8 µM [falling, single point].
Consider `COc1ccc2c(c1)-c1nc(NC(=O)c3cc(OC)c(OC)c(OC)c3)sc1CC2`, for which the half-maximal activity concentration (AC50) under setting [1] is 0.398 µM [falling, full curve].
As to `O=c1[nH]c(C2CCCN(S(=O)(=O)c3ccccc3)C2)nc2c1nnn2Cc1ccc(OC(F)(F)F)cc1` (stereo not drawn), the AC50 under setting [1] was 0.316 µM [falling, full curve].
`O=C(C1CCC(Cn2c(=O)c3sccc3n(Cc3ccc(F)cc3)c2=O)CC1)N1CCOCC1` (stereo not drawn): the AC50 under setting [1] is 7.94 µM [rising, single point].
`CN1C(=O)c2[nH]nc(-c3ccc(F)cc3)c2C1c1cccc(O)c1` (stereo not drawn): the AC50 under setting [1] was 39.8 µM [falling, single point].
Take `CSc1ccccc1NC(=O)Nc1ccccc1`: under setting [1], the AC50 is 10 µM [falling, partial curve].
On the same count and under the same terms, next, `COc1cc(NC(=O)CN(c2cc(C)cc(C)c2)S(=O)(=O)c2c(C)[nH]c(=O)[nH]c2=O)cc(OC)c1`: 31.6 µM [falling, partial curve].
On to `Cc1ccc(-n2c(=O)c3ccc(C(=O)NCc4ccccc4Cl)cc3n(CC(=O)Nc3ccc(C)cc3C)c2=O)cc1`, for which, under setting [1], the AC50 is 7.94 µM [falling, partial curve].
For `Cc1cc(C)cc(C(=O)n2nc(C)c(S(=O)(=O)N3CCOCC3)c2C)c1`, the AC50 under setting [1] was 12.6 µM [falling, partial curve].
In the case of `Cc1ccc(Nc2cc(C)nc3nncn23)c(C)c1`, the AC50 under setting [1] was 7.94 µM [falling, single point].
Same read-out and setting: under `CCCC1(C(=O)O)NC(c2cccc(OC)c2O)C2C(=O)N(c3ccccc3)C(=O)C21` (stereo not drawn) stands 12.6 µM [falling, partial curve]; under `CCOc1ccc(-c2nc3ccccc3c(=O)o2)cc1`, 10 µM [falling, partial curve].
For `COC(=O)c1c(C)[nH]c(C)c1C(=O)c1ccccc1Cc1ccccc1`, under setting [1], the concentration at half-maximal activity (AC50) was 31.6 µM [falling, partial curve].
Regarding `COc1cccc(CNC(=O)Cn2nc(N3CCN(c4ccccc4OC)CC3)ccc2=O)c1`, the AC50 under setting [1] is 1.26 µM [falling, full curve, poor fit].
With `O=C(Nc1ccc(F)cc1)N(Cc1ccco1)Cc1cc2cc3c(cc2[nH]c1=O)OCO3`, the AC50 is 7.94 µM [falling, partial curve] under setting [2] and 7.94 µM [falling, partial curve] under setting [3].
`CCCCOc1ccc(C2C(=O)N(C3CCCCC3)CC(=O)N2CCCC)cc1` (stereo not drawn): under setting [1], the AC50 is 12.6 µM [falling, partial curve].
Regarding `COc1cc(NS(=O)(=O)c2ccc(C)cc2C)cc(OC)c1OC`, the AC50 under setting [1] is 31.6 µM [falling, partial curve].
With `COc1ccccc1CN(Cc1cc2cc(C)cc(C)c2[nH]c1=O)Cc1nnnn1CC1CCCO1` (stereo not drawn), under setting [1], the AC50 was 31.6 µM [falling, partial curve].
For `CCCc1[nH]nc2c1C(C1CC=CCC1)C(C#N)=C(N)O2` (stereo not drawn), the concentration at half-maximal activity (AC50) under setting [1] was 7.94 µM [falling, full curve, poor fit].
For the molecule `Cc1ccc(OCCOCCn2c(-c3ccc(Cl)cc3)nc3ccccc3c2=O)cc1`, the AC50 under setting [1] is 7.94 µM [falling, full curve, poor fit].
Take `CCCCOc1ccc(-c2nnn(CC(=O)Nc3ncc(CC(=O)OCC)s3)n2)cc1`: the AC50 under setting [1] is 20 µM [falling, partial curve].
Same read-out and setting: next, `CCOc1ccc(CN2CCc3nc(N4CCN(c5ccccn5)CC4)ncc3C2)cc1OC`: 25.1 µM [falling, partial curve]; `COc1ccc(-c2coc3c2c(C)cc2oc(=O)c(CC(=O)O)c(C)c23)cc1`: 31.6 µM [falling, partial curve].
As to `Cc1cc(C)c(S(=O)(=O)Nc2ccc3oc4c(c3c2)C(=O)CC(C)(C)C4)cc1C`, the AC50 under setting [1] was 7.94 µM [falling, partial curve].
On the same count and under the same terms, under `COc1cc(OC)c(NC(=O)c2cn(C3CCCC3)c(=O)c3c2c2ccccc2n3C)cc1Cl` stands 39.8 µM [falling, single point]; under `COc1cc2c(cc1OC)C(COc1ccc(F)cc1)N(C(=O)c1cccc(F)c1)CC2` (stereo not drawn), 31.6 µM [falling, partial curve].
On the same count and under the same terms, next, `Cc1nc2nc(SCC(=O)Nc3ccccc3Cl)nn2c(C)c1Cc1ccccc1`: 39.8 µM [falling, single point]; `O=C(c1ccc(Br)cc1)N(Cc1cccs1)c1ccc(F)cc1`: 25.1 µM [falling, single point]; `CN1CCN(C(=O)Cn2ncc3c4ccccc4n(Cc4ccc(F)cc4)c3c2=O)CC1`: 15.8 µM [falling, single point].
Regarding `CCOCCn1ccc2c(OCC(=O)Nc3cccc([N+](=O)[O-])c3)cccc2c1=O`, under setting [1], the AC50 is 2 µM [rising, full curve].
Take `COc1cccc(C(=O)Nc2ccccc2OCc2cc(=O)n3ccccc3n2)c1`: the concentration at half-maximal activity (AC50) under setting [1] is 10 µM [falling, partial curve].
As for `Cc1cccn2c(=O)c(/C=C(\C#N)c3nc4ccccc4s3)c(Oc3ccc(F)cc3)nc12`, the AC50 under setting [1] was 39.8 µM [falling, single point].
Still for that read-out and setting: under `Cc1cc(N(CCO)Cc2ccccc2)n2nc(-c3ccc(C(C)(C)C)cc3)nc2n1` stands 31.6 µM [falling, single point]; under `Cc1cc(C(=O)NCCC2=CCCCC2)c(C)o1`, 39.8 µM [rising, single point] [measured here: IkB-luc green channel].
As to `Cc1ccc(C)c(N2CCN(C(=O)c3cc(S(=O)(=O)N4CCOCC4)ccc3F)CC2)c1`, under setting [1], the AC50 was 15.8 µM [falling, partial curve].
Take `CCc1ccc(Nc2nnc(-n3nc(C)cc3C)c3ccccc23)cc1`: the AC50 under setting [1] is 0.251 µM [rising, single point].
Still for that read-out and setting: under `Cc1cccc(NC(=O)CNc2cc(C)ccc2C)c1` stands 15.8 µM [falling, partial curve]; under `Cc1ccccc1C(=O)NCCc1sc(-c2ccc(Cl)cc2)nc1C`, 1 µM [falling, full curve, poor fit]; under `O=C1NC2(CCCc3ccccc32)C(=O)N1Cc1nnc(-c2ccccc2Br)o1` (stereo not drawn), 31.6 µM [falling, single point].
The same measure, in the same setting: next, `COc1ccc(C2CC(=O)N(CC(=O)Nc3ccc(C)c(Cl)c3)c3ccccc3S2)cc1OC` (stereo not drawn): 0.158 µM [falling, full curve].
Consider `COc1ccc(-c2nc(SCC(=O)NC3CCCC3)c(-c3ccc(C)cc3)[nH]2)cc1OC`, for which, under setting [1], the half-maximal activity concentration (AC50) was 15.8 µM [falling, partial curve].
On the same count and under the same terms, next, `COc1ccc(N(Cc2cccs2)C(=O)Nc2cccc(Cl)c2)cc1`: 31.6 µM [falling, partial curve, poor fit].
On the same count and under the same terms, under `CCOC(=O)C1CCCN(S(=O)(=O)c2ccc3c(c2)oc(=O)n3C)C1` (stereo not drawn) stands 3.98 µM [falling, partial curve, poor fit]; under `Cc1noc(C)c1CSc1nc2ccccc2nc1NS(=O)(=O)c1ccc(Cl)cc1`, 15.8 µM [falling, partial curve].
Turning to `COc1ccc(-c2cn3c(n2)sc2cc(C(=O)NCc4cccc(F)c4)ccc23)cc1`, under setting [1], the concentration at half-maximal activity (AC50) is 25.1 µM [falling, single point].
Still for that read-out and setting: next, `CCCc1cnc2c(c1SCc1cccc(F)c1)c(=O)n(C)c(=O)n2C`: 39.8 µM [falling, partial curve]; `CCCc1noc(-c2ccc(NCc3ccc(C)cc3)c([N+](=O)[O-])c2)n1`: 0.316 µM [rising, full curve].
